In PubChem BioAssay AID2685 (National Center for Advancing Translational Sciences (NCATS), 2010):
This is one part of the list. These are further read-outs of the screen, such as a control signal, another cell line or another target. No call is given for them. Most of these compounds were active or inconclusive in the main read-out, so they are no random draw. Words in brackets tell the shape of the fitted curve; partial curves, single points and poor fits give uncertain potencies.

Assay: qHTS Assay for Lipid Storage Modulators in Drosophila S3 Cells;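 on cell number change: cells counted by Cell Tracker Red CMTPX staining in the red channel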
Conditions: BODIPY lipid droplet fluorescence, 18-24 h; for cell number change: measured here: cell count max response, cells fed with added oleic acid
How it was run: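 Drosophila S3 cells got compounds at several concentrations plus oleic acid (400 uM solution). Laser-scanning cytometry with 488 nm excitation read lipid droplets at 500-530 nm and cells at 575-640 nm. Percent activity was relative to 20 uM Triacsin C.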

[1] = measured here: cell number channel AC50, cells fed with added oleic acid
[2] = measured here: lipid fluorescence (Fed channel) AC50, cells fed with added oleic acid

| SMILES | cell number change | AC50 [1] | AC50 [2] |
| --- | --- | --- | --- |
| CS(=O)(=O)Nc1cccc(C(=O)CC2(O)C(=O)Nc3ccccc32)c1 (stereo not drawn) | -14.2% | 0.326 µM [falling, partial curve, poor fit] |  |
| COc1ccc(Nc2nc(N)nc(CN3CCN(c4ccccn4)CC3)n2)cc1 | -13.4% |  | 4.11 µM [rising, single point] |
| Cc1cc(C)n2nc(SCc3nnc(SCc4ccccc4Cl)s3)nc2n1 |  |  | 0.291 µM [rising, partial curve, poor fit] |
| CCCCOc1ccc(C)cc1CN(CCO)CCO | -61.3% | 29.1 µM [falling, single point] |  |
| COc1ccc(OC)c(C(C)NC(=O)Nc2ccccc2)c1 (stereo not drawn) | 64.5% | 20.6 µM [rising, single point] | 3.66 µM [falling, partial curve] |
| COc1ccccc1C(C)NCC(=O)NCc1ccc(C)cc1 (stereo not drawn) | 41.1% | 32.6 µM [rising, single point] |  |
| O=C(CSc1nnc(-c2ccccn2)o1)Nc1cccc(Cl)c1 | -7.89% |  | 3.55 µM [falling, single point] |
| CN(C)C(=O)CSc1nnc(CCN)o1 | -1.79% |  | 1.16 µM [falling, full curve] |
| COc1ccc(-c2nnc(NC(=O)CSc3ccc(C)cc3)s2)cc1OC |  | 0.00461 µM [falling, full curve, poor fit] |  |
| Cc1[nH]ccc(=O)c1OCc1c(F)cccc1Cl | 11.3% | 0.0651 µM [falling, full curve, poor fit] | 0.082 µM [falling, full curve, poor fit] |
| COc1cc(NC(=O)CSc2nncn2C)c(C)cc1[N+](=O)[O-] |  | 0.00461 µM [falling, full curve, poor fit] |  |
| Cc1cc(C(=O)Nc2ncc(C)s2)c2ccccc2n1 | 95.5% |  | 29.1 µM [rising, single point] |
| COCc1cc(C)n(CC(=O)Nc2ccccc2C(=O)OC)c(=O)c1C#N | 7.31% | 2.59 µM [rising, single point] |  |
| O=[N+]([O-])c1ccccc1Oc1ccc(S(=O)(=O)N2CCOCC2)cc1 | -0.188% |  | 0.00461 µM [falling, full curve, poor fit] |
| CCOc1ccc(-c2cc(NC(=O)Cn3ncc4c3-c3ccccc3OC4)on2)cc1OCC | -71.9% | 11.6 µM [falling, partial curve] | 10.3 µM [falling, partial curve] |
| O=[N+]([O-])c1cc(Cl)ccc1NCCNS(=O)(=O)c1ccccc1 |  |  | 18.4 µM [rising, single point] |
| O=C(NCc1ccncc1)c1cccc(S(=O)(=O)Nc2ccc(F)cc2)c1 | 71.5% | 13 µM [rising, partial curve] |  |
| O=C(OCC(=O)N1CCc2ccccc21)c1ccc(Cl)nc1 | -20.4% |  | 2.31 µM [rising, partial curve] |
| NNC(=O)c1cccnc1Oc1ccccc1 | 16.2% | 6.51 µM [falling, single point] | 6.51 µM [falling, single point] |

| SMILES | cell number change | AC50 [1] | AC50 [2] |
| --- | --- | --- | --- |
| CC(OC(=O)c1ccc(S(=O)(=O)N2CCCCC2)cc1)C(=O)Nc1ccc(C(N)=O)cc1 (stereo not drawn) | -9.77% |  | 2.06 µM [falling, partial curve] |
| COc1cccc(CN2CC(C(=O)NCc3ccc(C)o3)CCC2=O)c1 (stereo not drawn) | 1.45% |  | 25.9 µM [rising, single point] |
| O=C(C1CCCO1)N1CCN(C(=S)Nc2cc(F)cc(F)c2)CC1 (stereo not drawn) | -12.4% | 0.0731 µM [rising, full curve, poor fit] |  |
| COC(=O)C1CCN(CC(=O)Nc2ccc(OC)c(Cl)c2)CC1 | -1.92% | 0.651 µM [falling, single point] |  |
| O=C(NC1CCCCCC1)c1nnc(Cc2ccc(Cl)cc2)o1 | -5.47% |  | 20.6 µM [rising, single point] |
| CC1=C(C(=O)N2CCCCC2)C2(CCC(C)CC2)OC1=O (stereo not drawn) | -5.08% |  |  |
| Cn1nc(C(=O)NCc2ccccc2)cc1C(=O)NCc1ccccc1 | -36.8% | 0.206 µM [falling, full curve] |  |
| O=S(=O)(N1CCOCC1)N1CCN(c2ccc(F)cc2)CC1 | 21.7% |  | 6.51 µM [falling, single point] |
| Cc1cccc(NC(=O)C(C)Sc2nc3ccccc3c(=O)n2CCCN2CCOCC2)c1 (stereo not drawn) | 33% | 32.6 µM [rising, single point] | 29.1 µM [rising, single point] |
| Cn1c2c(c(=O)n(C)c1=O)CN(CCCN1CCOCC1)CN2 | -164% | 23.1 µM [falling, partial curve] | 23.1 µM [falling, partial curve] |
| CCOc1ccccc1OC(=O)c1cc2ccccc2oc1=O | -31.4% | 4.11 µM [falling, single point] |  |
| NC(=O)c1nc(N2CCOCC2)nc(N2CCOCC2)n1 | 4.17% |  | 13 µM [rising, partial curve] |
| Cc1[nH]c2ccccc2c1SCc1ccccc1 | -3.37% |  |  |
| CCOC(=O)c1ccc(CNC(=O)Cn2nnc(-c3ccccc3F)n2)o1 | 8.17% |  | 0.116 µM [rising, full curve, poor fit] |
| CC(C)(C)C1CCC(C(=O)Nc2ccccc2N2CCOCC2)CC1 (stereo not drawn) | -30.1% | 14.6 µM [falling, partial curve] | 5.8 µM [falling, full curve] |
| CNC(=O)NC(=S)NC(=O)c1cccc(Cl)c1 | -42.5% | 0.82 µM [falling, full curve] |  |
| O=C(CSc1nnc(COc2ccc(Cl)cc2)o1)NC1CC2CCC1C2 (stereo not drawn) | -5.26% |  |  |
| CCOC(=O)C(=CNc1cc(C)ccc1-n1cccc1)C(=O)OCC | 4.13% | 0.092 µM [rising, full curve, poor fit] | 3.66 µM [rising, single point] |
| Cc1cc(C)c(NS(=O)(=O)c2c(C)noc2C)c(C)c1 | 0.298% |  | 16.4 µM [rising, single point] |

A different layout for some results above:
O=[N+]([O-])c1ccccc1Oc1ccc(S(=O)(=O)N2CCOCC2)cc1
  cell number change: -0.188%
  AC50 [2]: 0.00461 µM [falling, full curve, poor fit]
CCOc1ccc(-c2cc(NC(=O)Cn3ncc4c3-c3ccccc3OC4)on2)cc1OCC
  cell number change: -71.9%
  AC50 [1]: 11.6 µM [falling, partial curve]
  AC50 [2]: 10.3 µM [falling, partial curve]
O=[N+]([O-])c1cc(Cl)ccc1NCCNS(=O)(=O)c1ccccc1
  AC50 [2]: 18.4 µM [rising, single point]
O=C(NCc1ccncc1)c1cccc(S(=O)(=O)Nc2ccc(F)cc2)c1
  cell number change: 71.5%
  AC50 [1]: 13 µM [rising, partial curve]

(next part)

| SMILES | cell number change | AC50 [1] | AC50 [2] |
| --- | --- | --- | --- |
| Cc1noc(C)c1CSc1nnc(-c2ccncc2)n1-c1ccc(Cl)c(Cl)c1 | 17.3% | 2.91 µM [rising, single point] |  |
| CCC(C)[C@H](NC(=O)N1c2ccccc2NC(=O)[C@@H]1C(C)C)C(=O)N[C@@H](Cc1ccccc1)C(=O)O (stereo partly drawn) | 18.4% |  | 29.1 µM [rising, single point] |
| CC(C)c1ccc(NC(=O)COc2ccc(S(=O)(=O)N3CCOCC3)cc2)cc1 | 16.4% | 0.13 µM [falling, full curve, poor fit] | 0.13 µM [falling, full curve, poor fit] |
| COC(=O)[C@@]12CCCCN1[C@H](c1ccc(-c3cccc(Cl)c3)c(OC)c1)[C@@H]1C(=O)N(C)C(=O)[C@@H]12 | -49.5% | 20.6 µM [falling, partial curve] | 6.51 µM [falling, single point] |
| O=C(NC1CCCc2ccccc21)C1CCN(S(=O)(=O)c2ccccc2F)CC1 (stereo not drawn) | -66.7% | 20.6 µM [falling, single point] |  |
| Cc1cccc(OCCCN2C(=O)C(=O)c3cc(C)ccc32)c1 | -29.9% |  | 9.2 µM [falling, partial curve, poor fit] |
| O=C(CCOc1ccccc1)Nc1ccc([N+](=O)[O-])cc1 | 21.7% |  |  |
| O=C(Oc1ccc(-c2nnco2)cc1)c1ccc(F)c(S(=O)(=O)N2CCOCC2)c1 | -5.55% |  | 29.1 µM [rising, single point] |
| CCOC(=O)C1CCN(C(=O)c2oc3ccc4c(c3c2C)C(O)CC2(CCCCC2)O4)CC1 (stereo not drawn) | -23.9% |  | 5.17 µM [falling, partial curve] |
| COc1cc(NC(=O)CCS(=O)(=O)c2nc(-c3cccs3)cc(C(F)(F)F)n2)cc(OC)c1OC | -70.9% | 20.6 µM [falling, single point] | 18.4 µM [falling, single point] |
| O=Cc1ccc2oc3nc4n(c(=O)c3c(=O)c2c1)CCCS4 | -67% | 29.1 µM [falling, single point] | 29.1 µM [falling, single point] |
| COc1cc(/C=C2/SC(=S)N(Cc3ccccc3)C2=O)ccc1OCC(=O)O | 8.03% | 2.06 µM [rising, partial curve] | 0.731 µM [rising, single point] |
| CC(OC(=O)Cc1n[nH]c(=O)c2ccccc12)C(=O)Nc1cccc([N+](=O)[O-])c1 (stereo not drawn) | 24.3% |  | 0.651 µM [rising, single point] |
| COc1ccc(N=C2C(=Nc3ccc(OC)cc3)N(c3ccc(OC)cc3)C(=S)N2C)cc1 | -88.7% | 4.61 µM [falling, full curve] | 3.26 µM [falling, full curve] |
| COc1ccc(CNC(=O)c2c(F)c(F)c(F)c(F)c2F)cc1 | 3.09% |  | 29.1 µM [falling, single point] |
| COc1ccc(C2C3=C(CCCC3=O)Nc3n[nH]c(C)c32)cc1OC (stereo not drawn) | 30.8% | 9.2 µM [rising, partial curve, poor fit] |  |
| COc1ccccc1N1CCN(S(=O)(=O)c2cn(C)c(=O)n(C)c2=O)CC1 |  |  | 0.82 µM [falling, full curve, poor fit] |
| CCOC(=O)NC(CC(=O)O)c1ccc(OC)c(OC)c1 (stereo not drawn) | 3.1% |  |  |
| CCCn1c(=S)[nH]c2ccccc2c1=O | 136% |  | 23.1 µM [rising, partial curve] |
